A short description of the series: Effect of uric acid and HSA on extent of AMBB oxidation (UPLC). The note with it: 100 μM AMBB. The class given is physicochemical.

Regarding `CC(=O)Nc1ccc(OCc2ccc(B(O)O)cc2)cc1` [AMBB, (4-((4-Acetamidophenoxy)methyl)phenyl)-boronic Acid], the “effect of uric acid on yield of AM, H2O2-induced oxidation” value (50 μM H2O2, 0–400 μM uric acid) is given as “did not affect”. Further, the “effect of HSA on efficiency of AM formation, H2O2-induced oxidation” value (50 μM H2O2, 0–700 μM HSA) was “significantly reduced”. Besides, the “amount of AMB-OH formed by HOCl oxidation” value (50 μM HOCl, 25 μM uric acid) is given as “reduced the amount of AMB-OH by approximately half”. For the same compound, the “AMBB oxidation by HOCl” value (50 μM HOCl, 200 μM uric acid) is listed as “almost complete inhibition”. The “peak of AM after HOCl oxidation” value (50 μM HOCl, any amount of HSA, e.g. 25 μM) was “completely abolished”. The same compound registered an AM formed (50 μM HOCl, no HSA, extended incubation) of 50 µM. In addition, the “effect of uric acid on extent of AMBB oxidation by ONOO–” value (50 μM ONOO–, 0–400 μM uric acid) is given as “virtually no effect”. The “yield of AM after ONOO– oxidation” value (50 μM ONOO–, 700 μM HSA) is given as “about 50%”.
